Results: patent publication US20220074941A1, “HSP90 COMBINATION THERAPY” (Sloan-Kettering Institute for Cancer Research, priority 2011, published 2022)

What was measured:
[1] = tested on: Hsp90 complexes in K562 cell extract; assay: Nano-LC-MS/MS of PU-beads pull-downs; format: binding; conditions: protein identified in PU-beads pull-down of K562 extract, QSTAR-Elite QTof MS
How it was run: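 Lysates pre-cleared overnight at 4 °C with control beads, then pulled down with PU-beads or control beads; eluted proteins (2% SDS boil) gel-separated and analysed by nano LC-MS/MS on a QTof. Mascot identification (p<0.05), spectral counts and sequence coverage evaluated in Scaffold.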

[2] = tested on: Hsp90 complexes in Mia-PaCa-2 cell extract; assay: Nano-LC-MS/MS of PU-beads pull-downs; format: binding, human; conditions: protein identified in PU-beads pull-down of Mia-Paca 2 extract; QSTAR-Elite QTof MS
How it was run: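 Lysates pre-cleared overnight at 4 °C with control beads underwent PU-bead pull-down; bound proteins were SDS-eluted, gel-separated, digested and analyzed by nano-LC-MS/MS on a QTof. Identifications used significance p<0.05, 0.4 Da tolerances and one missed cleavage; unique peptide (spectral) counts and sequence coverage were reported.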

Molecule | Number of Assigned Spectra, K562 Prep 1 [1] | Number of Assigned Spectra, K562 Prep 2 [1] | Number of Assigned Spectra, Mia-Paca 2 [2]
CAPN1 (protein) SEEIITPVYCTGVSAQVQKQRARELGLGRHENAIKYLGQDYEQLRVRCLQSGTLFRDEAFPPVPQSLGYKDLGPNSSKTYGIKWKRPTELLSNPQFIVDGATRTDICQGALGDCWLLAAIASLTLNDTLLHRVVPHGQSFQNGYAGIFHFQLWQFGEWVDVVVDDLLPIKDGKLVFVHSAEGNEFWSALLEKAYAKVNGSYEALSGGSTSEGFEDFTGGVTEWYELRKAPSDLYQIILKALERGSLLGCSIDISSVLDMEAITFKKLVKGHAYSVTGAKQVNYRGQVVSLIRMRNPWGEVEWTGAWSDSSSEWNNVDPYERDQLRVKMEDGEFWMSFRDFMREFTRLEICNLTPDALKSRTIRKWNTTLYEGTWRRGSTAGGCRNYPATFWVNPQFKIRLDETDDPDDYGDRESGCSFVLALMQKHRRRERRFGRDMETIGFAVYEVPPELVGQPAVHLKRDFFLANASRARSEQFINLREVSTRFRLPPGEYVVVPSTFEPNKEGDFVLRFFSEKSAGTVELDDQIQANLPDEQVLSEEEIDENFKALFRQLAGEDMEISVKELRTILNRIISKHKDLRTKGFSLESCRSMVNLMDRDGNGKLGLVEFNILWNRIRNYLSIFRKFDLDKSGSMSAYEMRMAIESAGFKLNKKLYELIITRYSEPDLAVDFDNFVCCLVRLETMFRFFKTLDTDLDGVVTFDLFKWLQLTMFA | 10 | 11 | 0
MAP2K3; MEK3 (protein, UniProt P46734 1-347, looked up) Dual specificity …: MESPASSQPASMPQSKGKSKRKKDLRISCMSKPPAPNPTPPRNLDSRTFITIGDRNFEVEADDLVTISELGRGAYGVVEKVRHAQSGTIMAVKRIRATVNSQEQKRLLMDLDINMRTVDCFYTVTFYGALFREGDVWICMELMDTSLDKFYRKVLDKNMTIPEDILGEIAVSIVRALEHLHSKLSVIHRDVKPSNVLINKEGHVKMCDFGISGYLVDSVAKTMDAGCKPYMAPERINPELNQKGYNVKSDVWSLGITMIEMAILRFPYESWGTPFQQLKQVVEEPSPQLPADRFSPEFVDFTAQCLRKNPAERMSYLELMEHPFFTLHKTKKTDIAAFVKEILGEDS | 0 | 0 | 2
AKAP8L (protein, UniProt Q9ULX6 1-646, looked up) A-kinase anchor protein 8-like: MSYTGFVQGSETTLQSTYSDTSAQPTCDYGYGTWNSGTNRGYEGYGYGYGYGQDNTTNYGYGMATSHSWEMPSSDTNANTSASGSASADSVLSRINQRLDMVPHLETDMMQGGVYGSGGERYDSYESCDSRAVLSERDLYRSGYDYSELDPEMEMAYEGQYDAYRDQFRMRGNDTFGPRAQGWARDARSGRPMASGYGRMWEDPMGARGQCMSGASRLPSLFSQNIIPEYGMFQGMRGGGAFPGGSRFGFGFGNGMKQMRRTWKTWTTADFRTKKKKRKQGGSPDEPDSKATRTDCSDNSDSDNDEGTEGEATEGLEGTEAVEKGSRVDGEDEEGKEDGREEGKEDPEKGALTTQDENGQTKRKLQAGKKSQDKQKKRQRDRMVERIQFVCSLCKYRTFYEDEMASHLDSKFHKEHFKYVGTKLPKQTADFLQEYVTNKTKKTEELRKTVEDLDGLIQQIYRDQDLTQEIAMEHFVKKVEAAHCAACDLFIPMQFGIIQKHLKTMDHNRNRRLMMEQSKKSSLMVARSILNNKLISKKLERYLKGENPFTDSPEEEKEQEEAEGGALDEGAQGEAAGISEGAEGVPAQPPVPPEPAPGAVSPPPPPPPEEEEEGAVPLLGGALQRQIRGIPGLDVEDDEEGGGGAP | 3 | 3 | 2
MYCBP (protein, UniProt Q99417 2-103, looked up) c-Myc-binding protein: AHYKAADSKREQFRRYLEKSGVLDTLTKVLVALYEEPEKPNSALDFLKHHLGAATPENPEIELLRLELAEMKEKYEAIVEENKKLKAKLAQYEPPQEEKRAE | 2 | 0 | 3
CARM1 (protein, UniProt Q86X55 2-608, looked up) Histone-arginine …: AAAAAAVGPGAGGAGSAVPGGAGPCATVSVFPGARLLTIGDANGEIQRHAEQQALRLEVRAGPDSAGIALYSHEDVCVFKCSVSRETECSRVGKQSFIITLGCNSVLIQFATPNDFCSFYNILKTCRGHTLERSVFSERTEESSAVQYFQFYGYLSQQQNMMQDYVRTGTYQRAILQNHTDFKDKIVLDVGCGSGILSFFAAQAGARKIYAVEASTMAQHAEVLVKSNNLTDRIVVIPGKVEEVSLPEQVDIIISEPMGYMLFNERMLESYLHAKKYLKPSGNMFPTIGDVHLAPFTDEQLYMEQFTKANFWYQPSFHGVDLSALRGAAVDEYFRQPVVDTFDIRILMAKSVKYTVNFLEAKEGDLHRIEIPFKFHMLHSGLVHGLAFWFDVAFIGSIMTVWLSTAPTEPLTHWYQVRCLFQSPLFAKAGDTLSGTCLLIANKRQSYDISIVAQVDQTGSKSSNLLDLKNPFFRYTGTTPSPPPGSHYTSPSENMWNTGSTYNLSSGMAVAGMPTAYDLSSVIASGSSVGHNNLIPLANTGIVNHTHSRMGSIMSTGIVQGSSGAQGSGGGSTSAHYAVNSQFTMGGPAISMASPMSIPTNTMHYGS | 12 | 16 | 9
CAMK2G (protein, UniProt Q13555 1-558, looked up) Calcium/calmodulin-dependent …: MATTATCTRFTDDYQLFEELGKGAFSVVRRCVKKTSTQEYAAKIINTKKLSARDHQKLEREARICRLLKHPNIVRLHDSISEEGFHYLVFDLVTGGELFEDIVAREYYSEADASHCIHQILESVNHIHQHDIVHRDLKPENLLLASKCKGAAVKLADFGLAIEVQGEQQAWFGFAGTPGYLSPEVLRKDPYGKPVDIWACGVILYILLVGYPPFWDEDQHKLYQQIKAGAYDFPSPEWDTVTPEAKNLINQMLTINPAKRITADQALKHPWVCQRSTVASMMHRQETVECLRKFNARRKLKGAILTTMLVSRNFSAAKSLLNKKSDGGVKKRKSSSSVHLMPQSNNKNSLVSPAQEPAPLQTAMEPQTTVVHNATDGIKGSTESCNTTTEDEDLKGRVPEGRSSRDRTAPSAGMQPQPSLCSSAMRKQEIIKITEQLIEAINNGDFEAYTKICDPGLTSFEPEALGNLVEGMDFHKFYFENLLSKNSKPIHTTILNPHVHVIGEDAACIAYIRLTQYIDGQGRPRTSQSEETRVWHRRDGKWLNVHYHCSGAPAAPLQ | 2 | 3 | 0
CAPNS1 (protein, UniProt P04632 1-268, looked up) Calpain small subunit 1: MFLVNSFLKGGGGGGGGGGGLGGGLGNVLGGLISGAGGGGGGGGGGGGGGGGGGGGTAMRILGGVISAISEAAAQYNPEPPPPRTHYSNIEANESEEVRQFRRLFAQLAGDDMEVSATELMNILNKVVTRHPDLKTDGFGIDTCRSMVAVMDSDTTGKLGFEEFKYLWNNIKRWQAIYKQFDTDRSGTICSSELPGAFEAAGFHLNEHLYNMIIRRYSDESGNMDFDNFISCLVRLDAMFRAFKSLDKDGTGQIQVNIQEWLQLTMYS | 0 | 0 | 3
CAMK1 (protein, UniProt Q14012 1-370, looked up) Calcium/calmodulin-dependent …: MLGAVEGPRWKQAEDIRDIYDFRDVLGTGAFSEVILAEDKRTQKLVAIKCIAKEALEGKEGSMENEIAVLHKIKHPNIVALDDIYESGGHLYLIMQLVSGGELFDRIVEKGFYTERDASRLIFQVLDAVKYLHDLGIVHRDLKPENLLYYSLDEDSKIMISDFGLSKMEDPGSVLSTACGTPGYVAPEVLAQKPYSKAVDCWSIGVIAYILLCGYPPFYDENDAKLFEQILKAEYEFDSPYWDDISDSAKDFIRHLMEKDPEKRFTCEQALQHPWIAGDTALDKNIHQSVSEQIKKNFAKSKWKQAFNATAVVRHMRKLQLGTSQEGQGQTASHGELLTPVAGGPAAGCCCRDCCVEPGTELSPTLPHQL | 0 | 0 | 3
